Measurements published in publication PMC6408466, “Inner lumen proteins stabilize doublet microtubules in cilia and flagella” (Nature Communications, 2019).

Target: T1, FAP45 (flagellar-associated protein 45) (Chlamydomonas (endogenous in wild type axonemes)) (UniProt A8I9E8)
T1 sequence: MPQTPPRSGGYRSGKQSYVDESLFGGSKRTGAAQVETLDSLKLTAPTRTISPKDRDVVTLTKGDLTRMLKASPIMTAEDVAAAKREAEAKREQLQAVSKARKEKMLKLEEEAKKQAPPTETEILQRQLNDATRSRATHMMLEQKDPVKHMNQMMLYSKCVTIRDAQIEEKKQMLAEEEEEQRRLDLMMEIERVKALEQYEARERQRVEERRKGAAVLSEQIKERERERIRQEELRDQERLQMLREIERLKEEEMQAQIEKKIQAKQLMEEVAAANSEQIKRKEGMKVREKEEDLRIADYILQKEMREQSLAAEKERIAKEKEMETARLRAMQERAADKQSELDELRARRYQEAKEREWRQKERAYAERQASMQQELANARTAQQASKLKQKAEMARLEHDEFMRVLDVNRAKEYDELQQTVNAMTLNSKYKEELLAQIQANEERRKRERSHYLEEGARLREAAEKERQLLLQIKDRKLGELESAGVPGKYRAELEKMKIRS
Assay: cross-linking; isolated axonemes treated with EDC (zero-length crosslinker) in HMEK (30 mM Hepes-KOH pH 7.4, 5 mM MgSO4, 1 mM EGTA, 50 mM K-acetate), 60 min, room temperature; SDS-PAGE and western blot with anti-FAP45 and anti-FAP52 antibodies; wild type compared with fap45 and fap52 axonemes

binding: binds
Substance: tubulin

These are yes or no findings as the source states them, for the method shown. Binding seen in cells or lysates may run through a third protein. A result given as binding can be weak or reduced; the word gives no strength. Sequences can lack the tags named with a protein.
